From ChEMBL document CHEMBL3988442, “University of Dundee, Small-Polar-MMV Screening Library” (2021).

Protein sequences, listed by entry. Tags and fused reporters are not part of them. Residues count along the entry.
UniProt Q4DA54, 1-478: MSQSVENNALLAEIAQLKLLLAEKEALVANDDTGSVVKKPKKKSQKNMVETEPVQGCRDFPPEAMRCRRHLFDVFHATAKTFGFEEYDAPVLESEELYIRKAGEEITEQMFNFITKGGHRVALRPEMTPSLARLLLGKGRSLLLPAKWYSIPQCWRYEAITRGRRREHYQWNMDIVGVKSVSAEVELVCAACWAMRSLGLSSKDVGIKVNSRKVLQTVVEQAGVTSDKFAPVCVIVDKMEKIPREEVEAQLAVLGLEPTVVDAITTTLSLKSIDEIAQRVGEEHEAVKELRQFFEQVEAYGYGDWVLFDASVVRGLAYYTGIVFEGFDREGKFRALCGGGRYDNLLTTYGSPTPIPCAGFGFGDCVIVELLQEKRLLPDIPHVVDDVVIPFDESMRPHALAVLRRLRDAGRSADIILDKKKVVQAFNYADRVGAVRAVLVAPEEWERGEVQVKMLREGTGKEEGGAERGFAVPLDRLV
UniProt A4I591, 1-473: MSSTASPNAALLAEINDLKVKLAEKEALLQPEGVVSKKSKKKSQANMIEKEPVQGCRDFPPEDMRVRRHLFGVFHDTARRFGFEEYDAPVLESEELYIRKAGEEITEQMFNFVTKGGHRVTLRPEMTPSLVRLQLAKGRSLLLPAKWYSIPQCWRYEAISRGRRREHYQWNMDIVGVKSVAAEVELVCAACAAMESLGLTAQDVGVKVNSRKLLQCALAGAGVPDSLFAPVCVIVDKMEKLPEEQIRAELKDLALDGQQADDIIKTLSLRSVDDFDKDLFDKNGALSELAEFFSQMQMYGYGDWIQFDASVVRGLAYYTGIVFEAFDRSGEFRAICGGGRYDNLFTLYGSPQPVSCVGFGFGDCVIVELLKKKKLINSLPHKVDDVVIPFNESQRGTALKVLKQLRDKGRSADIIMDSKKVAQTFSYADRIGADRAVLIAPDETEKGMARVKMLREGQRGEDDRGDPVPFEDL

A: 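Histidine-tRNA ligase, Trypanosoma cruzi CL Brener (UniProt Q4DA54). Enzyme assay of histidyl-tRNA synthetase; the read-out is not stated. Concentration: 30 µM. Higher reads as stronger inhibition (inferred: compounds with an IC50 in retests scored well above the rest). Size under these conditions: about 69,000 compounds, about 31 of them at 50% or above in at least one test.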
B: 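Enzyme assay of histidyl-tRNA synthetase; the read-out is not stated. Target: Histidine-tRNA ligase, Leishmania infantum (UniProt A4I591). Tested at 30 µM. Higher reads as stronger inhibition (inferred: compounds with an IC50 in retests scored well above the rest). The assay is labelled LdHisRS but filed under L. infantum. Size under these conditions: about 69,000 compounds, about 410 of them at 50% or above in at least one test.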

The filed quantity is “Percent Effect” (%).
The record does not define 0% and 100%; most values in the screen are far below 50% and negative numbers occur (in some assays of this library far below -100).
Compounds were drawn at random from those tested, without regard to their results.

| # | SMILES | A | B |
|---|---|---|---|
| 1 | `Cc1nccn1CC1CCCN(Cc2ccc(-c3cccnc3)cc2)C1` (stereo not drawn) | 4.891 | 5.333 |
| 2 | `c1csc(CN2CCn3c(Cn4cncn4)cnc3C2)c1` | 8.824 | 24 |
| 3 | `Cc1cccc(NC(=O)N2CCCn3cnc(CN(C)C(C)C)c3C2)c1` | 6 | 5.479 |
| 4 | `Cn1nc(C2CC2)cc1C(=O)N1CCC(c2nnsc2S(C)(=O)=O)CC1` | 3.03 | 13.04 |
| 5 | `Cc1nc(C2CCCN2Cc2nccn2CC(F)(F)F)no1` (stereo not drawn) | 2.305 | 0 |
| 6 | `COCCCn1cnnc1CNC(=O)c1[nH]c2c(C)cc(C)cc2c1C` | 8.247 | -2.857 |
| 7 | `CC(C)c1nc(CN(C)C(=O)c2ccc3c(c2)OCC(=O)N3)cs1` | 13.6 | 34.43 |
| 8 | `CCC(NC(=O)CN(C)Cc1ccc(C)o1)c1ccc(C)cc1` (stereo not drawn) | 1.02 | 16.67 |
| 9 | `CCN(CC)C(=O)CCNC(=O)c1c[nH]c2ccc(OC)cc12` | 1.087 | 15.15 |
| 10 | `CN1CCN(c2cc(NC(=O)c3cnccn3)ncn2)CC1` | 4.124 | 12.17 |
| 11 | `O=C(NCC(O)c1ccc(F)c(F)c1)c1cccnc1OCC(F)(F)F` (stereo not drawn) | 4.132 | 15.24 |
| 12 | `COCCC1(CNC(=O)Nc2ccc(-n3ccnn3)cc2)CCC1` | 1.754 | 12.39 |
| 13 | `COCCC(=O)N1CC2(CCN(c3ccccc3)C2)C1` | -6.897 | 24 |
| 14 | `Cc1noc(C)c1C(=O)N1C[C@@H]2CN(Cc3cccnc3)CCO[C@@H]2C1` | 7.438 | 16.36 |
| 15 | `Cc1nc(CN2CCN(C(=O)C(c3ccccc3C)N(C)C)CC2)no1` (stereo not drawn) | -1.288 | 9.836 |
| 16 | `COc1cc2nc(C)n(CC(=O)NCCCO)c(=O)c2cc1OC` | -2.41 | 2.564 |
| 17 | `O=C(C1CCOCC1)N1CCC2(CCNCC2)C1` | 2.913 | 3.846 |
| 18 | `CCOCCNC(=O)Nc1ccc(OCc2noc(C3CC3)n2)cc1` | 0 | 8.036 |
| 19 | `Fc1cc(Oc2ccc(C(F)(F)F)cn2)cc(F)c1CN1CCCC1` | 0 | 13.7 |
| 20 | `COc1ccc(C2=NOC(CC#N)C2)cc1` (stereo not drawn) | 0.4464 | 13.58 |
| 21 | `Cc1cc(CN(C)CC2CCCN(CCc3ccc(Cl)cc3)C2)[nH]n1` (stereo not drawn) | 1.205 | 15.38 |
| 22 | `CSc1ccc(CNc2n[nH]c(C)n2)cc1` | 6.931 | -2.381 |
| 23 | `Cc1noc(C)c1CN1C[C@@H]2COC[C@@H](CC(=O)N3CCCCO3)[C@@H]2C1` | 0.9804 | 16 |
| 24 | `O=C(N1CCCC1)N1CCO[C@H]2[C@@H](Oc3ccccn3)CC[C@@H]21` | 7.104 | 3.65 |
| 25 | `NCC1[C@H]2CN(CCc3ccccc3)C[C@@H]12` (stereo partly drawn) | 1.504 | 7.317 |
| 26 | `CNC(=O)C1CCN(c2ncc3c(n2)CCN3c2ccccc2)C1` (stereo not drawn) | 12.71 | 43.37 |
| 27 | `O=C1CCC2(CCCN(c3ncc(F)cn3)CC2)N1CC1CC1` (stereo not drawn) | 3.261 | 30.1 |
| 28 | `CCn1c(=O)n(Cc2nc(C3CC3)no2)c2ccccc21` | 10.98 | 17.02 |
| 29 | `CNC(=O)[C@H]1C[C@@H]2CN(Cc3cccc(C)c3)C[C@H]1O2` | 7.263 | 13.46 |
| 30 | `Cn1cnc2c1CCN(CCS(=O)(=O)c1ccccc1)C2` | -1.132 | 14.86 |
| 31 | `CCN(Cc1ccc2c(c1)OCO2)c1ncc(S(N)(=O)=O)s1` | 3.704 | 11.76 |
| 32 | `CCc1nccn1CC(=O)N1C[C@H]2CC[C@@H]1CN(C(=O)N(C)C)C2` | 10.93 | 8.219 |
| 33 | `CS(=O)(=O)NC1CCCN(c2ccc(C#N)cn2)C1` (stereo not drawn) | 0.5435 | -21.33 |
| 34 | `CCc1cnc(CN(C)C2CCN(Cc3nnc(C4CC4)n3C)C2)o1` (stereo not drawn) | 9.302 | 12.5 |
| 35 | `CN(C)C(=O)COC[C@@]12CCC[C@@H]1CN(C1CCC1)C2` | 0 | 0 |
| 36 | `CC(=O)N1CCCC1c1cc(Nc2nnc(C)s2)nc(C)n1` (stereo not drawn) | 1.498 | 16 |
| 37 | `N#Cc1ccccc1OCCN1CCn2c(nnc2C2CC2)C1` | 7.925 | 1.351 |
| 38 | `CCCC(NC(=O)c1cncc(C)c1)c1nnn[nH]1` (stereo not drawn) | 8.333 | -4.464 |
| 39 | `CN(Cc1noc2c1CCCC2)C(=O)Cn1c(=O)cnc2ccccc21` | 3.448 | 12.82 |
| 40 | `O=C1CCCN1Cc1nnn2c1CN(c1ncccn1)CCC2` | 4.908 | 18.8 |
| 41 | `CN(C)C(=O)Cc1ccccc1NCc1nc(Cc2ccccc2)no1` | 5.155 | 25.71 |
| 42 | `Cc1csc(N2CCCN(C(=O)C(C)n3ccnc3)CC2)n1` (stereo not drawn) | 1.149 | 21.54 |
| 43 | `Cn1ncc2c(N3CCCC(C)(O)C3)nc(C(C)(C)C)nc21` (stereo not drawn) | 5.747 | -2.564 |
| 44 | `O=C(c1ccncn1)N1CCC[C@]2(C[C@H](OCC3CC3)CO2)C1` | 0 | 4 |
| 45 | `Cc1ncc(CNC(=O)CCc2c(C)noc2C)c(C2CCCN2C)n1` (stereo not drawn) | 6.667 | 20.62 |
| 46 | `CC(=O)c1csc(-c2csc(Cn3ccc(=O)[nH]c3=O)n2)c1` | 4.902 | 17.65 |
| 47 | `C=C(C)CN(CC)S(=O)(=O)c1ccccc1C#N` | 5.051 | 1.587 |
| 48 | `Cc1nn(C)c2cn(CC(=O)N3CCN(c4ccccc4)CC3)nc12` | 6.696 | 8.642 |
| 49 | `Cc1csc(CNC(=O)NC2CCCN(S(C)(=O)=O)C2)n1` (stereo not drawn) | 8.163 | 16.53 |
| 50 | `CN(CCCc1cnn(C)c1)C(=O)C1CCOC1` (stereo not drawn) | 5.785 | 5.769 |
| 51 | `COc1cc2[nH]c(=O)c(CN3CCCC(CO)C3)cc2c(OC)c1OC` (stereo not drawn) | -3.59 | 15.87 |
| 52 | `C=Cc1ccc(C(=O)N2CCCC(Nc3ccc(OC)cc3)C2)cc1` (stereo not drawn) | 5 | 17.31 |
| 53 | `Cc1noc(C)c1CN(C)C(=O)c1nc(N2CCCC2)ncc1Cl` | 7.879 | 13.33 |
| 54 | `CNC(=O)[C@@H]1C[C@@H](N)CN1Cc1cc2cc(C)cc(C)c2[nH]c1=O` | 4.255 | 15.62 |
| 55 | `Cc1noc(C)c1C(=O)N1CCCN(Cc2nccn2C(C)C)CC1` | 4.399 | 2.778 |
| 56 | `CC(C)NS(=O)(=O)c1ccccc1CNCc1cccc(O)c1` | 7.792 | 20 |
| 57 | `CCn1c(N)nc2cc(C(=O)NCCNc3ncccc3C)cnc21` | 2.439 | 15.66 |
| 58 | `O=S(=O)(C1CC1)N1C[C@H]2CCC[C@@]2(COc2ccccn2)C1` | -0.5464 | 17.48 |
| 59 | `Cc1cc(=O)c(C(=O)N2CCN(C)c3ccccc3C2)c[nH]1` | 10 | 10.2 |
| 60 | `O=C(Nc1cccc(N2CCN(CC3CC3)CC2)c1)N1CCCC1` | 9.524 | 15.15 |
| 61 | `O=C(NCC1Cn2nnc(-c3ccoc3)c2CO1)c1ccc[nH]1` (stereo not drawn) | 9.091 | 16.36 |
| 62 | `CNC(=O)c1ccc(OC2CCN(S(C)(=O)=O)CC2)c(Cl)c1` | 4.878 | 22.12 |
| 63 | `O=C(CN1CCN(CCO)CC1)NCc1ccc(Cl)s1` | 6.173 | 10.75 |
| 64 | `CC(C)N(C)C(=O)C1=NOC2(CCN(C(=O)c3ccnnc3)C2)C1` (stereo not drawn) | 7.035 | -7.447 |
| 65 | `CCOc1cccc(NC(=O)c2cc[nH]n2)n1` | 13 | 20.41 |
| 66 | `O=C(NCc1csc2ccccc12)NCC1(O)CCSC1` (stereo not drawn) | 10.97 | 9.091 |
| 67 | `CCc1nc(N2CCOCC2)ncc1C(=O)NC(c1cccs1)C(C)C` (stereo not drawn) | 0 | -5.674 |
| 68 | `Cn1ncc2c(=O)[nH]c(CN3CCCC3CCc3ccccc3)nc21` (stereo not drawn) | 1.156 | 11.61 |
| 69 | `CCOCCC(=O)N(CCC#N)c1ccc(C)c(C)c1` | 2.762 | 5.181 |
| 70 | `CC(=O)Nc1ccc(C(=O)N(C)Cc2ccc(F)cc2F)s1` | -1.84 | 17.28 |
| 71 | `CN1CCN(S(C)(=O)=O)c2ccc(F)cc21` | 5.82 | 20.59 |
| 72 | `Cc1cc2ccncc2n1CC1(O)CCN(C(=O)c2cccnc2)CC1` | 8.812 | 10 |
| 73 | `CS(=O)(=O)c1ccc(C(=O)N2CCCC(n3cncn3)C2)o1` (stereo not drawn) | -0.8772 | -1.77 |
| 74 | `COc1cc(C(=O)N2CCCC2CC(=O)c2cnn(C)c2)ccc1F` (stereo not drawn) | 3.012 | 0 |